This test has as its target Hsp90AA1 (human (endogenous in HL60-ADR)) (UniProt P07900). As to the kind of experiment: co-IP; whole HL60-ADR cell lysate immunoprecipitated with anti-Hsp90AA1 antibody and protein A/G beads overnight at 4°C, western blot; lysis buffer 20 mM Tris-HCl pH 7.4, 0.5 M NaCl, 1% NP-40, 5 mM EDTA, 1 mM DTT; control or AC021683.2-knockdown cells, with or without 5 μM Ara-C for 48 h; normal IgG as negative control.

Results are given in words; binding and its absence hold for the method and conditions named. Binding seen in cells or lysates may run through a third protein. Some binding calls cover weakened binding; strength is not graded here.

Turning to “BCL-2-associated transcription factor 1 (BCLAF1) (from UniProt Q9NYF8 1-920)”, the binding entry is “binds”.
